“And” between values parts separate entries of the source, which are not always exact repeats. Equal values may be shown once. Hit rate of the full screen: of about 400,000 compounds, about 3,700 (0.93%) were called active. Inconclusive means that the source gave no clear call. Such entries were picked first, then a sample of the others. Calls come from the whole dose curve; as a rule, active = well fitted inhibition curve with a large enough effect; inconclusive = small, poorly fitted or top-dose-only effect, or another doubt; inactive = no such curve, though single readings can be large or run the other way. A potency beside an inconclusive call is a rough fit, not a confirmed value. Where a SMILES comes first, the peptide text is derived from it. The star is where a group is joined. CH2Cl = ClC*
Biological target: Vitamin D3 receptor (Homo sapiens) (UniProt P11473)
Experiment: Inhibitors of the vitamin D receptor (VDR): qHTS
Details: VDR-SRC2-3 peptide fluorescence polarization, 2 h; max response, negative = inhibition: active compounds read low
Outline: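 FP read-out; VDR + SRC2-3 coactivator peptide; 23 nl compound by pintool; 2 h RT incubation; reagents held at 4 deg C, protected from light.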
% is set by controls: 0 for no effect and ±100 for the full control effect; potency is the fitted concentration of half-maximal effect.

By UniProt entry, the sequences of proteins in these tests, tags left out. Where a name states a change or a piece, a line headed by the entry shows the natural chain unless it says otherwise.
UniProt P11473: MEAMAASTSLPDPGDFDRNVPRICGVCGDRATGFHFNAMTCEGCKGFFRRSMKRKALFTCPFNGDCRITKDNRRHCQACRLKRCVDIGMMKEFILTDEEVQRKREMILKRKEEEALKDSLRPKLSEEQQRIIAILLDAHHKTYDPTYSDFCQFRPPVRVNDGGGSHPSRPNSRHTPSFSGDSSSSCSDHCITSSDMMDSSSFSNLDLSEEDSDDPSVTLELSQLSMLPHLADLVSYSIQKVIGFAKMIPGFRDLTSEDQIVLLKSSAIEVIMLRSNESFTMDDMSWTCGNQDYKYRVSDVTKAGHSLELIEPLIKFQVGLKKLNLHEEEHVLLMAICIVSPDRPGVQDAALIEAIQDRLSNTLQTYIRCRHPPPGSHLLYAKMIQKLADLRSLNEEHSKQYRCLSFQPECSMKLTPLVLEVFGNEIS

Compound	max response, negative = inhibition	Potency
Cc1nn(Cc2ccccc2)c(C)c1C(=O)OCC(=O)Nc1cccc(S(N)(=O)=O)c1	inactive: -0.439%	–
Cc1cccc(OCC(=O)N2CCN(Cc3ccncc3)CC2)c1	inactive: 6.23%	–
CN1C(=O)NC(=O)[C@]2(Cc3ccccc3N3CCN(c4ccccc4)CC32)C1=O (some centres not stated)	–	inconclusive: 100 µM [inhibitor, single point]
O=C(CNC(=O)c1ccc(Br)cc1)NCC(=O)OCC(=O)c1ccc([N+](=O)[O-])cc1	–	inconclusive: 89.1 µM [inhibitor, single point]
Cc1cc(C)cc(OCCOc2cccc(C=C3C(=O)NC(=O)NC3=O)c2)c1	–	inconclusive: 56.2 µM [inhibitor, partial curve, poor fit]
COC(=O)C(O)(c1c(C)[nH]n(-c2ccccc2)c1=O)C(F)(F)F (configuration not stated)	–	inconclusive: 35.5 µM [inhibitor, single point]
Cc1ccc(C(C)C)c(OCC#CCN2CCCC2)c1	inactive: -0.362%	–
CCOc1nc(NC(C)C)nc(N2CC3CC(C2)c2cccc(=O)n2C3)n1 (configuration not stated)	–	inconclusive: 20 µM [inhibitor, partial curve, poor fit]
[O]=[Sb]([OH])([OH])[c]1ccccc1	–	active: 79.4 µM
C=C1C/C(=C/C)C(=O)O[C@@H]2CCN3CC=C(COC(=O)[C@]1(C)O)[C@H]23	–	inconclusive: 112 µM [inhibitor, partial curve, poor fit]
CCOc1cccc(OCC)c2c(C)[n+](CC3CCCO3)c(C)c1-2 (configuration not stated)	inactive: -28.7%	–
O=C(c1cn(Cc2ccccc2)c2ccccc12)C1CC1	–	inconclusive: 89.1 µM [inhibitor, single point]
Cc1ccccc1CN1Cc2cnnn2-c2ccccc2C1C#N (configuration not stated)	–	inconclusive: 14.1 µM [inhibitor, full curve, poor fit]
O=C1CCc2c(ccc3ccccc23)O1	–	inconclusive: 56.2 µM [inhibitor, single point]
O=[N+]([O-])c1ccc(-c2[se]c3ccccc3c2I)cc1	–	inconclusive: 39.8 µM [inhibitor, partial curve]
CCN1CCN(CC(=O)c2c(C)n(Cc3ccccc3)c3ccc(OC)cc23)CC1	–	inconclusive: 25.1 µM [inhibitor, single point]
COP(=S)(OC)Oc1ccc(S(=O)(=O)N(C)C)cc1	–	inconclusive: 79.4 µM [inhibitor, partial curve, poor fit]
O=C(O)CCC(=O)NCCC1=c2ccccc2=N/C1=C\c1c(O)n(Cc2ccc(F)cc2)c(=S)[nH]c1=O	–	active: 20 µM
COc1ccccc1N1C(=O)NC(=O)/C(=C/c2ccc3c(c2)Cc2ccccc2-3)C1=O	–	inconclusive: 56.2 µM [inhibitor, partial curve, poor fit]
Cc1ccc(S(=O)(=O)Nc2cc(C(=O)N3CCC4(CC3)OCCO4)ccc2N2CCCCC2)cc1	–	inconclusive: 35.5 µM [inhibitor, partial curve, poor fit]

Compound	max response, negative = inhibition	Potency
C[C@@H]1O[C@H](O[C@@H]2CC[C@@]3(C=O)[C@H]4CC[C@@]5(C)[C@@H](C6=CC(=O)OC6)CC[C@@]5(O)[C@@H]4CC[C@]3(O)C2)C[C@H](O)[C@@H]1O	inactive: -11.2%	–
Cc1ccc(/C=C2\C(=O)NC(=S)N(c3ccccc3F)C2=O)s1	–	inconclusive: 100 µM [inhibitor, single point]
O=c1oc2ccccc2c(O)c1[C@H]1c2ccc(O)cc2Oc2c1c(=O)oc1ccccc21	–	active: 79.4 µM
CC1=NN(c2ccccc2)C(=O)/C1=C/c1c(O)[nH]c(=S)[nH]c1=O	–	inconclusive: 89.1 µM [inhibitor, single point]
Cn1c(O)c(Cc2cccc(Cl)c2Cl)c(=O)n(C)c1=O	–	inconclusive: 7.08 µM [inhibitor, partial curve, poor fit]
CC/C(=N\N1CCN(C)CC1)c1c(O)[nH]c(=O)[nH]c1=O	–	inconclusive: 6.31 µM [inhibitor, full curve, poor fit]
CCCCOCN(C(=O)CCl)c1c(CC)cccc1CC	–	inconclusive: 39.8 µM [inhibitor, full curve]
CC1=C2CCC3C(CCC4=CC(=O)CCC43C)C2CC1 (configuration not stated)	–	inconclusive: 31.6 µM [inhibitor, partial curve, poor fit]
C=CCn1c(O)c(C=NCCN2CCNCC2)c(=O)[nH]c1=O	–	inconclusive: 50.1 µM [inhibitor, partial curve, poor fit]
Cc1[nH]n(-c2ccccc2)c(=O)c1C(c1cccc([N+](=O)[O-])c1O)c1c(C)[nH]n(-c2ccccc2)c1=O	–	inconclusive: 3.16 µM [inhibitor, full curve, poor fit]
CCCNC(=O)c1c(N)n(Cc2ccco2)c2nc3ccccc3nc12	–	inconclusive: 100 µM [inhibitor, partial curve, poor fit]
CCOc1ccccc1-n1c(O)c(C=Nc2c(C)n(C)n(-c3ccccc3)c2=O)c(=O)[nH]c1=O	inactive: -3.38%	–
O=C1C(Cl)=C(N2CCOCC2)C(=O)N1c1ccccc1F	–	active: 14.1 µM
CCCCC/C=C\C/C=C\C/C=C\C/C=C\CCCC(=O)OCCN	–	inconclusive: 50.1 µM [inhibitor, partial curve]
CN1Cc2ccccc2-n2nncc2C1	inactive: 1.94%	–
CN1CC[C@]2(C)c3cc(O)ccc3N(C)[C@@H]12	–	inconclusive: 14.1 µM [inhibitor, single point]
C[C@H](N)C(=O)N[C@@H](C)C(=O)N[C@@H](Cc1ccccc1)C(=O)CCl (H-Ala-Ala-Phe-CH2Cl)	–	inconclusive: 44.7 µM [inhibitor, partial curve]
C[C@]12CC[C@H](O)CC1=CCC1C2CC[C@]2(C)C(=O)[C@H](Br)CC12 (some centres not stated)	–	inconclusive: 79.4 µM [inhibitor, single point]
CCOP(=O)(C1=C(O)C(=O)C(C(C)(C)C)=CC1=O)c1ccccc1 (configuration not stated)	–	inconclusive: 28.2 µM [inhibitor, partial curve, poor fit]
CN(C)c1ccc(/C=C2\C(=O)NC(=O)N(CCc3ccc(F)cc3)C2=O)cc1	–	active: 39.8 µM
COC(=O)C1=CO[C@@H](O[C@@H]2O[C@H](CO)[C@@H](O)[C@H](O)[C@H]2O)C2C(CO)=CCC12 (some centres not stated)	–	inconclusive: 89.1 µM [inhibitor, partial curve, poor fit]

Compound	max response, negative = inhibition	Potency
O=C1Nc2ccccc2C1Cc1nc2ccccc2c(=O)n1-c1ccccc1 (configuration not stated)	–	inconclusive: 25.1 µM [inhibitor, partial curve, poor fit]
COCCNC(=O)c1c(N)n(CCC(C)C)c2nc3ccccc3nc12	–	inconclusive: 89.1 µM [inhibitor, single point]
c1ccc(CN2CCCC3(CCNCC3)C2)cc1	–	inconclusive: 79.4 µM [inhibitor, single point]
COc1ccc2c3c1O[C@H]1C[C@@H](O)C=C[C@@]31CCN(C)C2	–	inconclusive: 89.1 µM [inhibitor, partial curve, poor fit]
CN(C)c1ccc(/C=C/[N+](=O)[O-])cc1	–	inconclusive: 20 µM [inhibitor, full curve]
COCCCNC(=O)Cn1cc(/C=C2\C(=O)NC(=O)N(c3ccccc3F)C2=O)c2ccccc21	–	inconclusive: 56.2 µM [inhibitor, partial curve, poor fit]
O=C(Nc1ccc(OC(F)(F)F)cc1)c1cccn(Cc2ccccc2Cl)c1=O	inactive: 20.1%	–
CCN(CC)c1ccc(CC2C(=O)N(C)C(=O)N(C)C2=O)cc1	inactive: -14.2%	–
O=P1(NCc2ccco2)COc2ccccc2OC1	inactive: 0.966%	–
CNS(=O)(=O)c1ccc(-c2ccc(C=C3C(=O)NC(=O)NC3=O)o2)cc1	–	active: 44.7 µM
CCCCN1CCC(O)(c2ccccc2)C(C(=O)c2ccccc2)C1 (configuration not stated)	–	inconclusive: 79.4 µM [inhibitor, partial curve]
Cc1ccc(C)c(CN2C(=O)c3ccccc3Sc3ccc(C(=O)N4CCC5(CC4)OCCO5)cc32)c1	inactive: -2.55%	–
c1ccc(SSc2ccccc2)cc1	–	active: 31.6 µM
CCOc1ccc(CN2C(=O)c3ccccc3Sc3ccc(C(=O)N4CCC5(CC4)OCCO5)cc32)cc1	–	inconclusive: 70.8 µM [inhibitor, partial curve, poor fit]
CCN(C(=O)COC(=O)c1cc(C)n(C2CC2)c1C)c1ccccc1	–	inconclusive: 89.1 µM [inhibitor, single point]
Cc1ccccc1-n1c(O)c(C(c2ccncc2)c2c(O)n(-c3ccccc3C)c(=O)[nH]c2=O)c(=O)[nH]c1=O	–	inconclusive: 25.1 µM [inhibitor, full curve, poor fit] and inconclusive: 70.8 µM [inhibitor, single point]
C/C(=C/C=C/[C@@H](C)C(=O)O)[C@H]1CN[C@H](C(=O)O)[C@H]1CC(=O)O	–	inconclusive: 89.1 µM [inhibitor, single point]
c1ccc(CN2CC[C@@]3(CCCNC3)C2)cc1	–	inconclusive: 50.1 µM [inhibitor, partial curve]
COc1ccc(C)cc1N(CC(=O)N1CCC(C)CC1)S(=O)(=O)c1ccc(C)cc1	–	inconclusive: 31.6 µM [inhibitor, partial curve, poor fit]
COc1ccc(N2C(=O)NC(=O)/C(=C\c3cn(CC(=O)N4CCOCC4)c4ccccc34)C2=O)c(OC)c1	–	inconclusive: 79.4 µM [inhibitor, partial curve, poor fit]

Part of the list above, with bars between the fields.
Compound | max response, negative = inhibition | Potency
CN(C)c1ccc(/C=C/[N+](=O)[O-])cc1 | – | inconclusive: 20 µM [inhibitor, full curve]
COCCCNC(=O)Cn1cc(/C=C2\C(=O)NC(=O)N(c3ccccc3F)C2=O)c2ccccc21 | – | inconclusive: 56.2 µM [inhibitor, partial curve, poor fit]
O=C(Nc1ccc(OC(F)(F)F)cc1)c1cccn(Cc2ccccc2Cl)c1=O | inactive: 20.1% | –
